Assay results reported in paper PMC7819943, “Rice protein-binding microarrays: a tool to detect cis-acting elements near promoter regions in rice”.
This is one part of the list.

Sequences of proteins named here, by UniProt entry; tags and fusion partners are left off.
UniProt Q0JBA9, entry or part of it: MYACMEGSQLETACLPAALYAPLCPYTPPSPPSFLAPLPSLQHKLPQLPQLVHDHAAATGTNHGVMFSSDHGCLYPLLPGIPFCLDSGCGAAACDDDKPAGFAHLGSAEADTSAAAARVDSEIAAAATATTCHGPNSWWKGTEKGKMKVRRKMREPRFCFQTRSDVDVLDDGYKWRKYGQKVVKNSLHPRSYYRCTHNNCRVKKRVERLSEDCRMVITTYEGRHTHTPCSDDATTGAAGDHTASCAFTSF

Target: OsWRKY34 (Oryza sativa, UniProt Q0JBA9 1-250)
Experiment: protein-binding microarray (RPBM); PBS, 2% BSA, 51.3 ng/ul salmon testes DNA, 50 uM zinc acetate, 200 nM TF, 25 C, 1 h; high values mean tight binding
Conditions: protein: recombinant; tags: N-terminal polyhistidine and DsRed monomer fusion (pET32a); label: CyDye5-dUTP incorporated in the synthesized complementary strand; 3' TTTTT single-stranded linker to array surface; dsDNA, one strand shown
Method in brief: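 Binding signal is reported as fluorescence intensity per feature (arbitrary units) from an Axon 4000B scanner. Incubation used 200 nM of each Ni–NTA-purified, N-terminally polyhistidine- and DsRed-fused transcription factor from E. coli BL21-CodonPlus on a double-stranded custom Agilent array for 1 h at 25 °C, with 50 µM zinc acetate in the buffer, followed by washing.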

Sequence	binding signal
GACCTGGGCTGGGGCAATGCCTGGTTTTCTTTGGGCTAATCGGAGTCACCTAGTGCAG	9530 fluorescence intensity (a.u.)
TGCTTCAGTATATTCTCTGCTTCACCTGTCTCTCGCCTGCCGGAGTCACCTAGTGCAG	10800 fluorescence intensity (a.u.)
ATGACAACCAATGCCATATATTCCATACCTCAGTCGCATGCGGAGTCACCTAGTGCAG	8340 fluorescence intensity (a.u.)
AAACCGCGCTGCCCTGCCCTTTTCCGCCATAGCTAATCTACGGAGTCACCTAGTGCAG	10300 fluorescence intensity (a.u.)
CCTTCGCGTCCGTCGTCCTGCTTGCTGCGGCCTGCAGCTGCGGAGTCACCTAGTGCAG	9150 fluorescence intensity (a.u.)
TTCAGGATGAGGGAAGTGCAGAGATTGCACCTTTTTCGTTCGGAGTCACCTAGTGCAG	8430 fluorescence intensity (a.u.)
TTCAACCTCTCCACCGGCGCCCTCGCCCGCGCCAAGCTCCCGGAGTCACCTAGTGCAG	8190 fluorescence intensity (a.u.)
ACCCAACATTTGTTTTTTTGTTTCCACTCTTCGCAAGCCACGGAGTCACCTAGTGCAG	8800 fluorescence intensity (a.u.)
CTTCACAGTCGCTGCCTACCTTGCCGTCCGTGATCCCGGTCGGAGTCACCTAGTGCAG	8820 fluorescence intensity (a.u.)
ATTCGTTATACTAGGTGACATCTCATCTAATATTTGTTTACGGAGTCACCTAGTGCAG	8120 fluorescence intensity (a.u.)
TATAGGTCCCACGCTATCTCAGTCGCCACATCAGCTAAAACGGAGTCACCTAGTGCAG	8690 fluorescence intensity (a.u.)
CAGGGACAGTTTGGTAAATTCGCGTTGGATTGCTTCTTATCGGAGTCACCTAGTGCAG	8650 fluorescence intensity (a.u.)
CACGCCTCATTTGGCATCGCATCTGATTGCCCTGTAGATTCGGAGTCACCTAGTGCAG	11900 fluorescence intensity (a.u.)
CGACGCGTGCTGCTTTTGATTTTTCTTTCTTTTTCTTTTTCGGAGTCACCTAGTGCAG	10300 fluorescence intensity (a.u.)
TGCTTAATTAATTCGTACGCTAATCCATTCTCTTTTTTTTCGGAGTCACCTAGTGCAG	10100 fluorescence intensity (a.u.)
TTGCGGTTGGGGACGATTTTGTAACTCGATGACAAGTTGACGGAGTCACCTAGTGCAG	13000 fluorescence intensity (a.u.)
ATACATTTTCGTTATTAAATCAGTTGTTTATTCTTTATGGCGGAGTCACCTAGTGCAG	8290 fluorescence intensity (a.u.)
GGCATCCTACACTCTAGCTAGCCCACAGTCCGCTGCCGGCCGGAGTCACCTAGTGCAG	8790 fluorescence intensity (a.u.)
CAGTCGTTTGTCCATCTCTCCCTCCACTACCCCGTCTCTCCGGAGTCACCTAGTGCAG	8410 fluorescence intensity (a.u.)
CGGTTCTTGTCGTAGAAAGCTCCGTGTTATCGTTTATATTCGGAGTCACCTAGTGCAG	8090 fluorescence intensity (a.u.)
CCCCTACCACAGAGGACTCGTTCTCTCTCTCTCCTCTCGACGGAGTCACCTAGTGCAG	8510 fluorescence intensity (a.u.)

Sequence	binding signal
CTTCTGATCCGTTTGTGTCAGAGCCAAATCTTCTTCTTCTCGGAGTCACCTAGTGCAG	8810 fluorescence intensity (a.u.)
CATCCGTTCTAGGAGGTTGTTTTCTTTGGACTTATTCCATCGGAGTCACCTAGTGCAG	8080 fluorescence intensity (a.u.)
TCTGTTTGGCCGGTTTTTGCACTAAGCTAATCACGGTTTACGGAGTCACCTAGTGCAG	9810 fluorescence intensity (a.u.)
GTCGCCGCTCGCCGCCACCTCGTCTTCCGCTGCGAGATCTCGGAGTCACCTAGTGCAG	11300 fluorescence intensity (a.u.)
CCTTATACATTACTTAGTACTATGTTCGTTTCAGATTACGCGGAGTCACCTAGTGCAG	8820 fluorescence intensity (a.u.)
TCGCATTCGCATCTGCTTTTTCGGCGTTCTGTTCTGTTCTCGGAGTCACCTAGTGCAG	8370 fluorescence intensity (a.u.)
ACTTGGATCAATCCCTACCATCCGTCCACATCTATCTACTCGGAGTCACCTAGTGCAG	10300 fluorescence intensity (a.u.)
AATCTCACCCATCCACGTGTCCCCAGATCTCATCCCCATCCGGAGTCACCTAGTGCAG	8030 fluorescence intensity (a.u.)
CATCCCACCTGCTCCGGCGAGGGAGGGTCGGGGTCCTCAACGGAGTCACCTAGTGCAG	8480 fluorescence intensity (a.u.)
TGCTGCTTGACATGTTTTTTTTCTTTTTCTTTTTCTTTTTCGGAGTCACCTAGTGCAG	10700 fluorescence intensity (a.u.)
AACCGCATCATATGTATCCATGGTGGTCTTCTTTATCTTTCGGAGTCACCTAGTGCAG	11700 fluorescence intensity (a.u.)
TTCTCGATCACCTGCCTCGAGGTCTTCTTCACCGTCTTGGCGGAGTCACCTAGTGCAG	8950 fluorescence intensity (a.u.)
GGGCGTCGCCTCCCCTTTCTCGATCACCCGCGTATTATTACGGAGTCACCTAGTGCAG	9030 fluorescence intensity (a.u.)
GTTTATTTGTTTTATGTTGGCTTAACTCACTGTGAATGTGCGGAGTCACCTAGTGCAG	9780 fluorescence intensity (a.u.)
AACACAAACCTTAGGCTACGTTCTCCATGTGCCTTTCGTCCGGAGTCACCTAGTGCAG	8800 fluorescence intensity (a.u.)
CCTTCACTTCACTCCCATTCCCATTTCCTCTCGCTCCCACCGGAGTCACCTAGTGCAG	8560 fluorescence intensity (a.u.)
TTCCTTTTTTTTCCTATGGCCTGCTTCCATCCAACAGCATCGGAGTCACCTAGTGCAG	9160 fluorescence intensity (a.u.)
ACGAAGAATTTCTCGCTTCGTTTCATCCCCACCATTTTTTCGGAGTCACCTAGTGCAG	8860 fluorescence intensity (a.u.)
TTGGTAGTTGAGGGACCCGTTGTGTCTGGTTTTTCGGTTGCGGAGTCACCTAGTGCAG	8740 fluorescence intensity (a.u.)
ATGTTGAGTATTATGTGTTTAGGGGTATATTAGTAATTTCCGGAGTCACCTAGTGCAG	11800 fluorescence intensity (a.u.)
AAATGTCCTTGGTGGTTGGTGCTCTTTGGCCTCCTATATACGGAGTCACCTAGTGCAG	10600 fluorescence intensity (a.u.)

Some of the entries above, set out differently.
Sequence | binding signal
TTCTCGATCACCTGCCTCGAGGTCTTCTTCACCGTCTTGGCGGAGTCACCTAGTGCAG | 8950 fluorescence intensity (a.u.)
GGGCGTCGCCTCCCCTTTCTCGATCACCCGCGTATTATTACGGAGTCACCTAGTGCAG | 9030 fluorescence intensity (a.u.)
GTTTATTTGTTTTATGTTGGCTTAACTCACTGTGAATGTGCGGAGTCACCTAGTGCAG | 9780 fluorescence intensity (a.u.)

More results.

Sequence	binding signal
GGCAGCTGCTGTTTGTATCTTTTAGGCTGGCATCCACAACCGGAGTCACCTAGTGCAG	8330 fluorescence intensity (a.u.)
CCACACGTCCATCCAGTATCTACGTAACCCTTAATTGGTACGGAGTCACCTAGTGCAG	8070 fluorescence intensity (a.u.)
AGGGAGGGAGTAAAGAAAAAGTTTGGGGCGGTGACAAGAGCGGAGTCACCTAGTGCAG	8610 fluorescence intensity (a.u.)
CACGCACCCACAGCACACCCACGCGGCCGCAGCCACGCGCCGGAGTCACCTAGTGCAG	8310 fluorescence intensity (a.u.)
GCGGATGAGATGGGAGATGGCACAAGGGGAAGGGGAGGGCCGGAGTCACCTAGTGCAG	8560 fluorescence intensity (a.u.)
CCGCGAGCTCTTCAAACCTGTGCGATCAAACTGTTGAACTCGGAGTCACCTAGTGCAG	8270 fluorescence intensity (a.u.)
AGAGATGTACTTTGTTTATTGTAGTGAATGGCTGCCTAATCGGAGTCACCTAGTGCAG	8660 fluorescence intensity (a.u.)
TGTCTATAGAAAATGTTTTAATACCAGCGCACTCTCTATACGGAGTCACCTAGTGCAG	8850 fluorescence intensity (a.u.)
GGCGGTTGCTGCGGTGGGGAAGGGGTAGGGAGAAGCCCCTCGGAGTCACCTAGTGCAG	8990 fluorescence intensity (a.u.)
GTCCACCAAATAGCTAGCCTACCATCGTGCGTATTGGACACGGAGTCACCTAGTGCAG	8340 fluorescence intensity (a.u.)
ATACAAGAGGCGGTTTTTTTATTTCCTTTTCTTCCGTTTACGGAGTCACCTAGTGCAG	13600 fluorescence intensity (a.u.)
CGTCGTCGTCGCGCCGGCCGGCTCTCTCTCTCTCTCTCCCCGGAGTCACCTAGTGCAG	8880 fluorescence intensity (a.u.)
TTTTTGCTTAAACCTTGGACCCTGTTACCTGTTTGGCTGACGGAGTCACCTAGTGCAG	9440 fluorescence intensity (a.u.)
ATCAGTAGTACCCCAGATCAGTTTGTTGCTTTGCTGCTTCCGGAGTCACCTAGTGCAG	11000 fluorescence intensity (a.u.)
TCTGTCTATCTATCTAATCTTCACTTGGAAGCAAATTTTGCGGAGTCACCTAGTGCAG	8250 fluorescence intensity (a.u.)
ATTTTGATGCCTAGGACTTGTATTACACGCTCCCTTTCTTCGGAGTCACCTAGTGCAG	8350 fluorescence intensity (a.u.)
TCTAGTCCGTTCTAATCTCTTCCTATAGCTCCTTTTATTTCGGAGTCACCTAGTGCAG	10300 fluorescence intensity (a.u.)
GTCAAACCGCTCCCTGACTGCGCCGAGTTTTATTCCCTGCCGGAGTCACCTAGTGCAG	9340 fluorescence intensity (a.u.)
CCGCCGCCCGACCACGACCAGATCCACGGCTCCTCCTCCGCGGAGTCACCTAGTGCAG	8180 fluorescence intensity (a.u.)
TTAAAGTTTAGGGTTGACTTTCATATAGAGTTTAGGAATGCGGAGTCACCTAGTGCAG	10900 fluorescence intensity (a.u.)
GCCACGCATGCAATTGCAGCCTTGCTTGCCCAAGCTTTACCGGAGTCACCTAGTGCAG	10200 fluorescence intensity (a.u.)

Sequence	binding signal
GTAATCCTCTGTTTTACACTTCTATTCCTGTCAGAATCCTCGGAGTCACCTAGTGCAG	11400 fluorescence intensity (a.u.)
TACGGGCTCCATGGTTACTTCGACACCACCGGCACCCACGCGGAGTCACCTAGTGCAG	10100 fluorescence intensity (a.u.)
CCCTCGACCGCTCCCGCTTCTCCGACCACTCCGCCCGCGACGGAGTCACCTAGTGCAG	8580 fluorescence intensity (a.u.)
CCTCGTGCACCACGCTAGCTAACCCGCCTAGTTCACGCAACGGAGTCACCTAGTGCAG	8450 fluorescence intensity (a.u.)
ACAACATATATTCTCTGGACAGTTATATCTTTGCTTCTTACGGAGTCACCTAGTGCAG	9310 fluorescence intensity (a.u.)
AATTTAATCTCTCCTTGCAGGTACACTCTCCACCATGTATCGGAGTCACCTAGTGCAG	9460 fluorescence intensity (a.u.)
AAATACCACTCCACCTGCTGCCGTCGCCGCCGCCATCGCCCGGAGTCACCTAGTGCAG	11500 fluorescence intensity (a.u.)
TCACTATACCTGTATGGCTGTATGTATGTGTATACGCTTTCGGAGTCACCTAGTGCAG	8220 fluorescence intensity (a.u.)
GATAGGAGTGATGGGAAATGCTCTCATGCTTGTTTCTTACCGGAGTCACCTAGTGCAG	8670 fluorescence intensity (a.u.)
ATGATTGGCTGTCTGAAGTTCTGTTCATCTATTTAATTAACGGAGTCACCTAGTGCAG	8430 fluorescence intensity (a.u.)
CATACACCACCTTTACCTCGCTAATCGGGTCTCTAATTAGCGGAGTCACCTAGTGCAG	8420 fluorescence intensity (a.u.)
TCTTTTCTTTTACGCTTATACTTATCAGTAAAAATTTAAACGGAGTCACCTAGTGCAG	8960 fluorescence intensity (a.u.)
TCGTGCGTGCGTGTTTAATTGTCAACCCATACACAACTTGCGGAGTCACCTAGTGCAG	8510 fluorescence intensity (a.u.)
ATACTAATGCGATTTCTTTACTTAATTTCCTTTCATAAGTCGGAGTCACCTAGTGCAG	10500 fluorescence intensity (a.u.)
ACTATCTCTCGCTGCAAACCATGACTTCTTTCTAATCTTTCGGAGTCACCTAGTGCAG	11300 fluorescence intensity (a.u.)
GTCTACCTGCAGTCCCGTCGCTCTCTCACCAGCAGCCATGCGGAGTCACCTAGTGCAG	10800 fluorescence intensity (a.u.)
AACTTATACTGCCTCATTTTTCGTCCATACGTTTCTCAATCGGAGTCACCTAGTGCAG	8290 fluorescence intensity (a.u.)
GGCCCGAACCTGTATACATCGCCCGTGTCTTGTGTGTTTCCGGAGTCACCTAGTGCAG	13800 fluorescence intensity (a.u.)
ATTGCCTTTTTCATTGAAACCATATTATGCTGTCATATCCCGGAGTCACCTAGTGCAG	8450 fluorescence intensity (a.u.)
CAGACCAGCCGTAAAACCCTTCCCCATTTTAGCCTCCTCGCGGAGTCACCTAGTGCAG	8180 fluorescence intensity (a.u.)
GCACGAGGGGAGATGTGCGGGCTGCAGTTTTTCTTTTGAACGGAGTCACCTAGTGCAG	8680 fluorescence intensity (a.u.)
